Source: publication PMC10564737, “Structure-based design of a phosphotyrosine-masked covalent ligand targeting the E3 ligase SOCS2” (Nature Communications, 2023)
“And” between values parts separate entries of the source, which are not always exact repeats. Identical values can stand only once. The source gives many values for each of these; only a part stands here.

Protein sequences, listed by entry. Tags and fused reporters are not part of them. Residues count along the entry.
UniProt O14508, 32-198: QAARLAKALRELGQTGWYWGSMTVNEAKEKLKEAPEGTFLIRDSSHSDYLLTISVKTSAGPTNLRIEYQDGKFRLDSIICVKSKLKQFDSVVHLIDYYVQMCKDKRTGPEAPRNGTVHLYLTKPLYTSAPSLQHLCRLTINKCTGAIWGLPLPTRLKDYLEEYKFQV

Biological target: T1, SBC2 (Homo sapiens, UniProt O14508)
T1 construct: SOCS2 (amino acids 32–198); His6 (N, cleaved yes); made in house; host or cells: E. coli BL21(DE3)
Experiment: Covalent fluorescence polarization (FP) probe displacement assay
Type: binding
Excerpt: With the specific covalent modification of Cys111 established, we decided to fully characterize MN551 as a covalent SOCS2 inhibitor. […] (Fig. 2g, h, Supplementary Fig. 9). Due to the covalent nature of the competing inhibitor, a time-dependent reduction in the fraction of protein-bound probe is observed. […] This value illustrates reasonable specificity for a covalent inhibitor, with nonetheless scope for future optimization. In addition to characterizing the kinetic covalency parameters, we have also assessed the stability of the MN551 by monitoring its reactivity (half-life >70 min) with reduced glutathione (GSH) (Supplementary Fig. 10)[35].
To monitor the SBC2-ligand binding kinetics we designed a fluorescein-labeled small-molecule probe - compound 26. The fluorescence polarization (anisotropy) of a threefold serial dilution of 50 µM SBC2 in 10 nM of the probe in 100 mM HEPES pH 7.5, 50 mM NaCl, 0.5 mM TCEP, 2% DMSO was measured to determine the KL (Supplementary Fig. 9A) (BMG Labtech PHERAstar – firmware v1.33). Protein titration and the curves were fitted using GraphPad Prism 9, using one-site fitting models to determine the probe binding constant, KL. Samples were run in triplicate in 384 well plates, using a total volume per well of 16 μL. The bound fraction of the probe is measure using the equation:1 Fb=Af−A/Af−Ab Where,
A time-dependent reduction in probe anisotropy were measured for a 2-fold serial dilution of […] compound MN551 in 10 nM probe +300 μM SBC2. To determine the initial reversible binding affinity, the initial bound fraction of the probe at time = 0, Fbo (the y-intercept in Fb v/s Time plot, Supplementary Fig. 9B) was plotted against MN551 concentration, and the obtained IC50 is then converted to Ki (Supplementary Fig. 9C)[17]. The slope from Fb versus time graph when divided by Fbo gives rate of covalency, kobs. A plot of kobs v/s MN551 concentration using Michaelis–Menten model of GraphPad Prism 9, provides the parameters kinact (maximum potential rate of inactivation) and KI (concentration of MN551 at which kobs = kinact/2) (Supplementary Fig. 9D, E).
The observed first-order rate constant, kobs is related to KI and kinact by the equation:2 kobs=kinactI/KI+I
At [I]«[KI] the above equation is converted to3 […]
The slope from the plot of kobs against concentration of MN551 gives us the covalent efficiency parameter kinact/KI (Supp Fig. 9F)[30],[33].

[1] = MN551 390.625 nM; Cycle 10 (45 min)
[2] = MN551 390.625 nM; Cycle 11 (50 min)
[3] = MN551 390.625 nM; Cycle 12 (55 min); n=1
[4] = MN551 390.625 nM; Cycle 13 (60 min); n=1
[5] = MN551 390.625 nM; Cycle 14 (65 min); n=1
[6] = MN551 390.625 nM; Cycle 15 (70 min); n=1
[7] = MN551 390.625 nM; Cycle 16 (75 min); n=1
[8] = MN551 510.204 nM, Cycle 9 (40 min)
[9] = MN551 510.204 nM, Cycle 10 (45 min)
[10] = MN551 510.204 nM, Cycle 11 (50 min)
[11] = MN551 510.204 nM, Cycle 12 (55 min)
[12] = MN551 510.204 nM, Cycle 16 (75 min), n=1
[13] = MN551 510.204 nM, Cycle 17 (80 min), n=1
[14] = MN551 510.204 nM, Cycle 18 (85 min), n=1
[15] = MN551 510.204 nM; Cycle 7 (30 min)
[16] = MN551 510.204 nM; Cycle 8 (35 min)
[17] = MN551 510.204 nM; Cycle 9 (40 min)
[18] = MN551 510.204 nM; Cycle 10 (45 min)
[19] = MN551 510.204 nM; Cycle 11 (50 min)
[20] = MN551 510.204 nM; Cycle 13 (60 min); n=1
[21] = MN551 510.204 nM; Cycle 14 (65 min); n=1
[22] = MN551 510.204 nM; Cycle 15 (70 min); n=1
[23] = MN551 510.204 nM; Cycle 16 (75 min); n=1
[24] = MN551 714.286 nM, Cycle 9 (40 min)
[25] = MN551 714.286 nM, Cycle 10 (45 min)
[26] = MN551 714.286 nM, Cycle 11 (50 min)
[27] = MN551 714.286 nM, Cycle 12 (55 min)
[28] = MN551 714.286 nM, Cycle 16 (75 min), n=1

O=C(CCl)Nc1cccc(CNC(=O)[C@H](Cc2ccc(OP(=O)(O)O)cc2)NC(=O)Cc2ccc(F)cc2)c1 [MN551]
Anisotropy data 485,520,520 [1]: 263.5 and 265.1 and 266.6
Fb [1]: 0.905 and 0.879 and 0.9076 and 0.9319 and 0.9386 and 0.9079
Anisotropy [2]: 269.9 and 268.6 and 268.1
Anisotropy based on Raw Data (485) [2]: 265.4 and 265.8 and 263
Anisotropy (MN551 390.625 nM; Cycle 11 (50 min); n=1): 262.1 and 264.5 and 265.6
Anisotropy [3]: 260.1 and 263.6 and 262.7
Anisotropy based on Raw Data (485) [3]: 263.7 and 265.1 and 261
Anisotropy [4]: 258 and 259.6 and 261
Anisotropy based on Raw Data (485) [4]: 264.5 and 264.8 and 259.7
Anisotropy [5]: 258.3 and 259.8 and 260.3
Anisotropy based on Raw Data (485) [5]: 262.2 and 262.6 and 258.4
Anisotropy [6]: 255.8 and 259.1 and 259
Anisotropy based on Raw Data (485) [6]: 262.5 and 263.5 and 259.2
Anisotropy [7]: 253.8 and 257.7 and 259.4
Anisotropy based on Raw Data (485) [7]: 257.7 and 260.6 and 257.1
Anisotropy data 485,520,520 (MN551 390.625 nM; Cycle 19 (90 min); n=1): 261.1 and 258.8 and 256.5
Anisotropy data 485,520,520 (MN551 390.625 nM; Cycle 20 (95 min); n=1): 261.4 and 255.6 and 254.3
Fb (MN551 510.204 nM, Cycle 7 (30 min)): 0.7463 and 0.6925 and 0.7158
Fb (MN551 510.204 nM, Cycle 8 (35 min)): 0.7249 and 0.6952 and 0.6739
Anisotropy based on Raw Data (485) [8]: 256.8 and 258 and 257.8
Fb [8]: 0.7241 and 0.6954 and 0.7141
Anisotropy based on Raw Data (485) [9]: 254.9 and 257.7 and 252.7
Fb [9]: 0.716 and 0.6966 and 0.6867
Anisotropy based on Raw Data (485) [10]: 254.8 and 254 and 255.7
Fb [10]: 0.7278 and 0.6612 and 0.6951
Anisotropy based on Raw Data (485) [11]: 255.9 and 253.8 and 252.4
Fb [11]: 0.7081 and 0.6991 and 0.6807
Anisotropy (MN551 510.204 nM, Cycle 13 (60 min), n=1): 251.3 and 248.3 and 246.9
Anisotropy (MN551 510.204 nM, Cycle 14 (65 min), n=1): 250.8 and 244.9 and 242.7
Anisotropy (MN551 510.204 nM, Cycle 15 (70 min), n=1): 246.8 and 244.6 and 243.1
Anisotropy [12]: 246.5 and 244.2 and 242.3
Normalised anisotropy (0 nM MN551 = 1, free probe = 0) [12]: 0.7262 and 0.7224 and 0.7017
Anisotropy [13]: 246.9 and 242.9 and 241
Anisotropy based on Raw Data (485) [13]: 246.6 and 246.2 and 247.2
Normalised anisotropy (0 nM MN551 = 1, free probe = 0) [13]: 0.751 and 0.7024 and 0.7119
Anisotropy [14]: 247.1 and 243.6 and 237.9
Normalised anisotropy (0 nM MN551 = 1, free probe = 0) [14]: 0.7619 and 0.7261 and 0.7035
Fb, fraction bound (MN551 510.204 nM; Cycle 4 (15 min)): 0.8736 and 0.82 and 0.8311
Fb, fraction bound (MN551 510.204 nM; Cycle 5 (20 min)): 0.8341 and 0.8069 and 0.8095
Fb, fraction bound (MN551 510.204 nM; Cycle 6 (25 min)): 0.8367 and 0.8061 and 0.8027
Anisotropy data 485,520,520 [15]: 255.4 and 245.7 and 247.4
Fb [15]: 0.838 and 0.8444 and 0.9203
Fb, fraction bound [15]: 0.7996 and 0.8155 and 0.7886
Anisotropy [16]: 256.6 and 255.7 and 255.9
Anisotropy data 485,520,520 [16]: 253.6 and 245.4 and 243.7
Fb [16]: 0.8335 and 0.8468 and 0.9136 and 0.8068 and 0.7778 and 0.8082
Anisotropy [17]: 258.4 and 254 and 252.7
Anisotropy data 485,520,520 [17]: 253.4 and 244.2 and 247.6
Fb [17]: 0.7979 and 0.8532 and 0.8993 and 0.8314 and 0.7564 and 0.7735
Anisotropy [18]: 256.9 and 253.8 and 250
Anisotropy data 485,520,520 [18]: 249.6 and 242.3 and 242.1
Fb [18]: 0.8044 and 0.8467 and 0.8698 and 0.8151 and 0.7692 and 0.7545
Anisotropy [19]: 255.5 and 253.1 and 250.3
Anisotropy data 485,520,520 [19]: 250.5 and 240.1 and 242.6
Fb [19]: 0.8082 and 0.775 and 0.7752
Fb (MN551 510.204 nM; Cycle 11 (50 min); column head blank in this cycle): 0.7968 and 0.8263 and 0.8866
Anisotropy (MN551 510.204 nM; Cycle 12 (55 min); n=1): 249.1 and 240.9 and 240.8
Anisotropy [20]: 246.3 and 236.8 and 237.8
Anisotropy based on Raw Data (485) [20]: 254.5 and 252.9 and 250.3
Anisotropy [21]: 246.5 and 235.8 and 237.4
Anisotropy based on Raw Data (485) [21]: 251.6 and 252.6 and 251.7
Anisotropy [22]: 243.9 and 236.5
Anisotropy based on Raw Data (485) [22]: 250.1 and 250.2 and 248
Anisotropy [23]: 241.7 and 234 and 234.3
Anisotropy based on Raw Data (485) [23]: 248.2 and 249.2 and 247.7
Anisotropy data 485,520,520 (MN551 510.204 nM; Cycle 20 (95 min); n=1): 240.4 and 239.6 and 236.2
Fb (MN551 714.286 nM, Cycle 7 (30 min)): 0.6941 and 0.6597 and 0.6875
Fb (MN551 714.286 nM, Cycle 8 (35 min)): 0.6778 and 0.6721 and 0.6457
Anisotropy based on Raw Data (485) [24]: 253.4 and 252.2
Fb [24]: 0.667 and 0.6654 and 0.6493
Anisotropy based on Raw Data (485) [25]: 253.2 and 249.3 and 253.1
Fb [25]: 0.671 and 0.6826 and 0.6416
Anisotropy based on Raw Data (485) [26]: 250.4 and 249.7 and 250.7
Fb [26]: 0.6343 and 0.6359 and 0.6515
Anisotropy based on Raw Data (485) [27]: 249.3 and 247.1 and 246.3
Fb [27]: 0.6301 and 0.6279 and 0.6205
Anisotropy (MN551 714.286 nM, Cycle 14 (65 min), n=1): 244.8 and 239 and 238.9
Anisotropy (MN551 714.286 nM, Cycle 15 (70 min), n=1): 240.2 and 239.9 and 237.6
Anisotropy [28]: 240.2 and 237.5 and 235.3
Normalised anisotropy (0 nM MN551 = 1, free probe = 0) [28]: 0.6667 and 0.6576 and 0.6348
